A negative result means that nothing was seen under these conditions. Where a protein sequence is shown, tags need not be part of it. The exact form of at least one protein or probe is not confirmed. Weaker means in comparison with the reference protein, sequence or condition of that experiment.
Target: T1, PBR1 (RLSB) (Arabidopsis thaliana) (UniProt Q9M9H4)
T1 sequence (looked up): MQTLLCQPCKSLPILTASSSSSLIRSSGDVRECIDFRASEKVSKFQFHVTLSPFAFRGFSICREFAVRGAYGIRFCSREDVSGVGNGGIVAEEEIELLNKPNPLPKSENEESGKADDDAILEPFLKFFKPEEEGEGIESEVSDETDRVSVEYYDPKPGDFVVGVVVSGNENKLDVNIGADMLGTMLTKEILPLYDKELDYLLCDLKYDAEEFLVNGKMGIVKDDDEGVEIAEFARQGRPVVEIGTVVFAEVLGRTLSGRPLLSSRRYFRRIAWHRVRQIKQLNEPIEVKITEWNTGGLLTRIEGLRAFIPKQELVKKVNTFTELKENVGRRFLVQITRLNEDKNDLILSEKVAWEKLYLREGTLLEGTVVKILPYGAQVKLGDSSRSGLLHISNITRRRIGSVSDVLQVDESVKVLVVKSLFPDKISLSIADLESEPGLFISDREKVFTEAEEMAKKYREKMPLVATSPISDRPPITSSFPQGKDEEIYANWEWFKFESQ
Test: EMSA
Details: 20 mM HEPES pH 8.0, 50 mM KCl, 10 mM MgCl2, 0.5 mM DTT, 0.2 ug/ul tRNA, 0.1 ug/ul BSA, 4% glycerol, 30 min on ice, 6% native PAGE in 0.5x TBE at 4 C, recombinant protein, residues 1-500, protein details: 6xHis (pET28-a, BamHI/EcoRI), probe letters rebuilt from the primers and the genome

Q: Does “GGGUCAUAAAUACUUUUUACUAUAUAUAAUAAGUUACGGUAUAUGAAAACAACUAUAUGCACAAAUAUGAGGGAUUGUUUUAAAUUAAAUCUUUAUACAUGAGAUUAAUUUAAUCAAUCACAUAGAUACCAAUUAU [Ycf1 3'-UTR RNA]” bind (lower affinity than Ycf1 5'-UTR, label: biotin-16-UTP (internal, body labeled), part of a longer molecule)?
A: binds more weakly

Q: Does “GGGUGAUUAGUUGAUAAUUUUGUGAAAGAUUCCUGUGAAAAAGGUUAAUUAAAUCUAUUCCUAAUUUAUGUCGAGUAGACCUUGUUGUUUUGUUUUAUUGCAAGAAUUCUAAAUUCAUGACUUGUAGGGAGGGACUU [rbcL 5'-UTR RNA]” bind (strong signal, called nonspecific, not competed by 125x cold rbcL 5'-UTR, part of a longer molecule)?
A: binds

Q: Does “GGGUAUCCCUUUGGUGUCAUUGACAUAAGAGAUGUCGUUUCUAGUCUAUCUCUUUCUAUUUCUAUAUAUGGAAAGUUGCAAAAUCAUCAUAUAAUAAUCCAGAAAUUGAAAUAGAAAAGAAAAAAGGGAGGUUUGUG [Ycf1 5'-UTR RNA]” bind (150 mM NaCl, binding largely unchanged, label: biotin-16-UTP (internal, body labeled), part of a longer molecule)?
A: binds

Q: Does “GGGUAUCCCUUUGGUGUCAUUGACAUAAGAGAUGUCGUUUCUAGUCUAUCUCUUUCUAUUUCUAUAUAUGGAAAGUUGCAAAAUCAUCAUAUAAUAAUCCAGAAAUUGAAAUAGAAAAGAAAAAAGGGAGGUUUGUG [Ycf1 5'-UTR RNA]” bind (cold probe competition confirmed specificity, label: biotin-16-UTP (internal, body labeled), part of a longer molecule)?
A: binds

Q: Does “GGGAAUUCUAAGUAUCUAUCAUCGGUUCACUAAUUACUUGAGUGACUGUUGGCGGGUUUCUUUGUAUGUGUUGUCCGGAAAGAGGAGGACUCA [psaA 5'-UTR RNA]” bind (no detectable binding signal, label: biotin-16-UTP (internal), part of a longer …)?
A: no binding
